Reference: PMC12806248
No constants are given. Whether binding was seen depends on the method and setting. Binding seen in cells or lysates may run through a third protein. Some entries that bind do so weakly or less than the wild type. For some of these results: Sequences can lack the tags named with a protein. Each block holds one molecule with its values, some of them ahead of it.

By UniProt entry, the sequences of proteins in these tests, tags left out.
UniProt P50990: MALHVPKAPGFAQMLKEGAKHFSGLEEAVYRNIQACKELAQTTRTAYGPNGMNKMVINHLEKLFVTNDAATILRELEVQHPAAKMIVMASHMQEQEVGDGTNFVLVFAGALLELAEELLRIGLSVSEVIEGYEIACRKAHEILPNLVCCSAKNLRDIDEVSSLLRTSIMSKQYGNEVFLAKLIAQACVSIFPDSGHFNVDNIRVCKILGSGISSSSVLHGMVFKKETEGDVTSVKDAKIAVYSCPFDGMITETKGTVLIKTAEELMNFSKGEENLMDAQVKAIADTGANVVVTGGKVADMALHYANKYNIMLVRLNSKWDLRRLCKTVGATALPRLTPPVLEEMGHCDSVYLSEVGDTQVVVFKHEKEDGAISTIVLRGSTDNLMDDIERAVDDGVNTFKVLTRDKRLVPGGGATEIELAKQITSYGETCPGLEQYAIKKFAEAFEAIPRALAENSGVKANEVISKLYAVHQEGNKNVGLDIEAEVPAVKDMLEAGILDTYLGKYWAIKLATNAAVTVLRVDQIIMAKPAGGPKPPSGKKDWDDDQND

Key:
HA-CCT3 (human) (human) = target: T1, HA-CCT3 (human) (human) (UniProt P49368); assay: co-IP; HEK293T co-expressing HA-tagged TRiC/CCT subunits and FLAG-DCAF12; anti-HA beads, anti-FLAG immunoblot
T1 sequence: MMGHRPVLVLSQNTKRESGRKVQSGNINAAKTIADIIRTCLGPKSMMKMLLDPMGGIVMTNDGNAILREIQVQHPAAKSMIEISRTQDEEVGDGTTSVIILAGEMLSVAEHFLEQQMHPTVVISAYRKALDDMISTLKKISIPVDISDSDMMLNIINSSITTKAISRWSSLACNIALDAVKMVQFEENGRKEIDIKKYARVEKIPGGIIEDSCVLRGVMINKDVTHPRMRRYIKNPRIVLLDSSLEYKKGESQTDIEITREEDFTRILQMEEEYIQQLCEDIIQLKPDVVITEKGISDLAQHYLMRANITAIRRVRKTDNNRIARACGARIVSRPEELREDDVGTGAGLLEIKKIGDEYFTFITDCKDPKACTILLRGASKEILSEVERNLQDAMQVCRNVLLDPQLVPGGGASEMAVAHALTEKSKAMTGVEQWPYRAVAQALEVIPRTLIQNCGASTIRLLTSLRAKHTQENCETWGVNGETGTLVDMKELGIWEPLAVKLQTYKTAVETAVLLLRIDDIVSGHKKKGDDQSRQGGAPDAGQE

HA-TCP1 (human) (human) = HA-TCP1 (human) (human) (UniProt P17987); assay: as above
HA-CCT2 (human) (human) = target: T2, HA-CCT2 (human) (human) (UniProt P78371); assay: as above
T2 sequence: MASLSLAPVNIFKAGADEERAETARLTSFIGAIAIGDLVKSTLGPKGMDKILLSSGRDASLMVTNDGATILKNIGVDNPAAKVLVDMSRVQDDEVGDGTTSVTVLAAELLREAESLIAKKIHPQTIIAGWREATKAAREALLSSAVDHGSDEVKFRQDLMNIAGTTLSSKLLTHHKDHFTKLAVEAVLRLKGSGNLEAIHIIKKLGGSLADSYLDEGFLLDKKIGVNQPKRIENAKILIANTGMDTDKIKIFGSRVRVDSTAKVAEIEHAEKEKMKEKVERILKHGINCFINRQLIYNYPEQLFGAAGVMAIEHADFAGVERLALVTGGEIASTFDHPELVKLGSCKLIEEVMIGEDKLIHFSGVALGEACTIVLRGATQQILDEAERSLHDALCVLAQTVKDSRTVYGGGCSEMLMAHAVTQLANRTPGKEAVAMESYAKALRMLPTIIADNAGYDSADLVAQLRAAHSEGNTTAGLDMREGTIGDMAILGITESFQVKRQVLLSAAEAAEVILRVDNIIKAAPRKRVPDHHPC

HA-CCT8 (human) (human) = HA-CCT8 (human) (human) (UniProt P50990); assay: as above
HA-CCT4 (human) (human) = target: T3, HA-CCT4 (human) (human) (UniProt P50991); assay: as above
T3 sequence: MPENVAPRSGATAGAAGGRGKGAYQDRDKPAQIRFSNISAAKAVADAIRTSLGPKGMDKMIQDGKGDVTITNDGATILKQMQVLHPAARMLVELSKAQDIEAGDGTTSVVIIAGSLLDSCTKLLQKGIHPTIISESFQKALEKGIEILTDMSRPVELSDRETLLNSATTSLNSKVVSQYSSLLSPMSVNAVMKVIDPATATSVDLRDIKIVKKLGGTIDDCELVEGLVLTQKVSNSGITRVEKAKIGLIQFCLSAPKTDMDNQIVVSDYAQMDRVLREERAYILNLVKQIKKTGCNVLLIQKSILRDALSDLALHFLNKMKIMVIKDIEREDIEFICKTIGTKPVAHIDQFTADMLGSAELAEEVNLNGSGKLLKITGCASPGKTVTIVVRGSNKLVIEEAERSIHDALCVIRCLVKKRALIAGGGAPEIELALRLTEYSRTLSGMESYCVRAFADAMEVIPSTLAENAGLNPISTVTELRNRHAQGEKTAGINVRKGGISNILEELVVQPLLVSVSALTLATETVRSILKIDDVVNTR

HA-CCT6A (human) (human) = HA-CCT6A (human) (human) (UniProt P40227); assay: as above
[1] = target: FLAG-DCAF12 (human), expressed in HEK293T (human) (UniProt Q5T6F0); assay: co-IP; reciprocal: HEK293T co-expressing HA-tagged TRiC/CCT subunits and FLAG-DCAF12; anti-FLAG beads, anti-HA immunoblot
[2] = target: endogenously HA-tagged DCAF12 (A549, CRISPR/Cas9 knock-in) (human (endogenous in A549)) (UniProt Q5T6F0); assay: co-IP; A549 cells with endogenously HA-tagged DCAF12; anti-HA IP, immunoblot of endogenous partners

Molecule: CCT8, human, endogenous in A549 (from UniProt P50990 1-548)
- binding [2]: binds

B1: HA-CCT2 (human) (protein, UniProt P78371 1-535)
chain: T2 sequence
- binding [1]: binds

B2: CCT2, human, endogenous in A549 (protein, UniProt P78371 1-535)
chain: T2 sequence
- binding [2]: binds

The remaining lines, values ahead:

- binding (HA-CCT3 (human) (human)): binds
- binding (HA-TCP1 (human) (human)): binds
- binding (HA-CCT2 (human) (human)): binds
- binding (HA-CCT8 (human) (human)): binds
- binding (HA-CCT4 (human) (human)): binds
- binding (HA-CCT6A (human) (human)): binds
Molecule: FLAG-DCAF12 (human), expressed in HEK293T (from UniProt Q5T6F0 1-453)

- binding [1]: binds
Molecule: HA-CCT8 (human) (from UniProt P50990 1-548)
